{"source": "PubChem BioAssay AID2685", "about": "(National Center for Advancing Translational Sciences (NCATS), 2010)", "note": "About 2,100 (0.66%) of roughly 320,000 compounds were called active. This list was built around the results that the source calls inconclusive (neither active nor inactive); the mix of calls is not that of the screen. Calls follow the shape of the dose curve; as a rule, active = well fitted inhibition curve with a large enough effect in the signal ratio, with a control signal flat (not every such curve was filed as active); inconclusive = small, poorly fitted or top-dose-only effect, or effect the other way, or a change in a side signal; inactive = flat fitted curve, though single readings scatter; the % refers to the signal ratio. Potencies of inconclusive entries are doubtful fits and often do not repeat."}
{"assay": "qHTS Assay for Lipid Storage Modulators in Drosophila S3 Cells; also: potency is read from the fitted curve at half-maximal effect; as to lipid storage change, negative = inhibition: % is scaled to controls: 0 for no effect and ±100 for the full control effect", "conditions": "BODIPY lipid droplet fluorescence, 18-24 h, cells fed with added oleic acid; lipid storage change, negative = inhibition: at 46.1 µM (top of the series) unless noted", "outline": "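Drosophila S3 cells loaded with oleic acid (400 uM, as added) and compounds at several concentrations; lipid droplets imaged by 488-nm laser-scanning cytometry, 500–530 nm intensity and object ratio to cell channel. Percent activity normalized to 20 uM Triacsin C.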"}
{"molecule": "CCCS(=O)(=O)N1CCCC(C(=O)N2CCOCC2)C1", "note": "(configuration not stated)", "lipid storage change, negative = inhibition": "inconclusive: 11.9%"}
{"molecule": "O=C(Nc1ccc(F)cc1)Nc1ccccc1N1CCCCC1", "lipid storage change, negative = inhibition": "inconclusive: -15.3%"}
{"molecule": "CN(NC(=O)c1ccccc1F)c1ncccc1[N+](=O)[O-]", "lipid storage change, negative = inhibition": "inconclusive: -20.6%"}
{"molecule": "CCn1c2ccccc2c2cc(NC(=O)COC(=O)c3cc(Cl)c(N)cc3OC)ccc21", "lipid storage change, negative = inhibition": "inconclusive: 15.8%"}
{"molecule": "CCCC1S/C(=N/N=C/c2cccs2)NC1=O", "note": "(configuration not stated)", "lipid storage change, negative = inhibition": "inconclusive: 21.2%"}
{"molecule": "Cc1ccc(S(=O)(=O)N(C)CC(=O)N2CCCCCCC2)cc1", "Potency": "inconclusive: 0.116 µM [falling, full curve]"}
{"molecule": "CCOC(=O)Cc1csc(NC(=O)/C=C/c2ccco2)n1", "lipid storage change, negative = inhibition": "inconclusive: -20.5%"}
{"molecule": "C=CCOc1ccc2oc(=O)cc(C)c2c1", "Potency": "inconclusive: 0.058 µM [activator, full curve, poor fit]"}
{"molecule": "CC(=O)c1c(C)[nH]c(C(=O)OCC(=O)Nc2cc(Cl)ccc2[N+](=O)[O-])c1C", "lipid storage change, negative = inhibition": "inconclusive: -31.4%"}
{"molecule": "CCC(CC)C(=O)NCCc1ccc(OC)c(OC)c1", "lipid storage change, negative = inhibition": "inconclusive: -141%"}
{"molecule": "S=c1[nH]c2ccccc2n2cccc12", "lipid storage change, negative = inhibition": "inconclusive: 8.21%"}
{"molecule": "CCN(CC)c1ccc2c(C)c(CO)c(=O)oc2c1", "lipid storage change, negative = inhibition": "inconclusive: 21.4%"}
{"molecule": "Cc1ccc(NS(=O)(=O)c2cccc(C(=O)N3CCCCCCC3)c2)cc1", "lipid storage change, negative = inhibition": "inconclusive"}
{"molecule": "CS(=O)(=O)N1N=C(c2ccc(Cl)cc2)CC1c1cccs1", "note": "(configuration not stated)", "Potency": "inconclusive: 2.91 µM [rising, single point]"}
{"molecule": "COc1cccc(C2/C(=C(/O)c3ccc4c(c3)CC(C)O4)C(=O)C(=O)N2CC2CCCO2)c1", "note": "(configuration not stated)", "lipid storage change, negative = inhibition": "inactive"}
{"molecule": "CC(=O)Nc1ccc2nc(NC(=O)CS(=O)(=O)c3ccccc3)sc2c1", "lipid storage change, negative = inhibition": "inconclusive"}
{"molecule": "O=C(O)[C@@H]1CCCN1c1ncnc2sc3c(c12)CCC3", "lipid storage change, negative = inhibition": "inconclusive: -91.1%"}
{"molecule": "O=C(O)CC1SC(=O)N(Cc2ccccc2)C1=O", "note": "(configuration not stated)", "lipid storage change, negative = inhibition": "inconclusive: -14.9%"}
{"molecule": "CC(C)Oc1ccc(CCc2n[nH]c(=S)n2Cc2ccccc2)cc1", "lipid storage change, negative = inhibition": "inconclusive: -22.5%"}
{"molecule": "CCCCn1c(N)c(N(CCOC)C(=O)CSc2nnc(-c3ccncc3)n2CCC)c(=O)[nH]c1=O", "lipid storage change, negative = inhibition": "inconclusive: -11.4%"}
{"molecule": "O=C(Cn1cnc2ccccc2c1=O)NCc1cccs1", "lipid storage change, negative = inhibition": "inconclusive: 3.39%"}
{"molecule": "O=C(CNCc1ccc(Cl)cc1)Nc1ccc2c(c1)OCCO2", "lipid storage change, negative = inhibition": "inconclusive: 21.4%"}
{"molecule": "COc1ccc(S(=O)(=O)C(C#N)c2nc3ccccc3nc2N2CCC(C)CC2)cc1", "note": "(configuration not stated)", "Potency": "inconclusive: 2.06 µM [activator, full curve, poor fit]"}
{"molecule": "Cc1ccc(S(=O)(=O)N2CCCC(C(=O)NCCCN3CCCCC3C)C2)cc1", "note": "(configuration not stated)", "lipid storage change, negative = inhibition": "inconclusive: 442%"}
{"molecule": "CCCCC1CCc2[nH]nc(C(=O)O)c2C1", "note": "(configuration not stated)", "lipid storage change, negative = inhibition": "inconclusive: -1.89%"}
{"molecule": "O=C1CC(N2CCN(c3ccccc3)CC2)C(=O)N1CCc1ccccc1", "note": "(configuration not stated)", "lipid storage change, negative = inhibition": "inactive"}
{"molecule": "CC(C)C1=C2OC(N)=C(C#N)C(C#N)=C2C(C)CC1", "note": "(configuration not stated)", "lipid storage change, negative = inhibition": "inconclusive: -3.5%"}
{"molecule": "O=C(CN(C(=O)c1cc2c(s1)CCC2)C1CCCC1)NCc1cccs1", "lipid storage change, negative = inhibition": "inconclusive: 1.11%"}
{"molecule": "COc1ccc(NC(=O)CSc2ccc(-c3sc(C)nc3C)nn2)cc1", "Potency": "inconclusive: 29.1 µM [activator, partial curve, poor fit]"}
{"molecule": "Cc1nc2c3c(-c4ccccc4)c(-c4ccccc4)oc3ncn2n1", "lipid storage change, negative = inhibition": "inconclusive: 15.6%"}
{"molecule": "Cc1ccc(NC(=O)Cn2nc(C)c3ccccc3c2=O)cc1F", "Potency": "inconclusive: 6.51 µM [activator, single point]"}
{"molecule": "CCC(=O)Oc1c(C(=O)CC)cc2c(C)cc(=O)oc2c1C", "lipid storage change, negative = inhibition": "inconclusive: 11.1%"}
{"molecule": "Nc1ncnc2c1c(-c1ccc(Oc3ccccc3)cc1)cn2C1CCCC1", "lipid storage change, negative = inhibition": "inconclusive: -65.4%"}
{"molecule": "OCCN1CCOCCN(CCO)CCOCC1", "lipid storage change, negative = inhibition": "inconclusive: -7.7%"}
{"molecule": "COc1ccccc1C(=O)NCCC(=O)N1CCN(c2ccccc2O)CC1", "lipid storage change, negative = inhibition": "inconclusive"}
{"molecule": "CN(C)CCOC(=O)c1ccc(COc2ccccc2Br)o1", "lipid storage change, negative = inhibition": "inconclusive: 10.4%"}
{"molecule": "O=C(O)c1ccccc1/C=N/NC(=O)C1CCCC1", "Potency": "inconclusive: 29.1 µM [activator, single point]"}
{"molecule": "O=S(=O)(c1ccc(S(=O)(=O)N(Cc2ccc(F)cc2)C2CCCC2)cc1)N1CCCC1", "lipid storage change, negative = inhibition": "inconclusive: 39.4%"}
{"molecule": "CC(C)c1ccc(OCC(=O)NC2CC(C)(C)NC(C)(C)C2)c(Br)c1", "lipid storage change, negative = inhibition": "inconclusive: 50.3%"}
{"molecule": "COc1ccc(C2CC(c3ccc4ccccc4c3OC(C)=O)=NN2C(C)=O)cc1", "note": "(configuration not stated)", "lipid storage change, negative = inhibition": "inconclusive: -12.6%"}
{"molecule": "O=C(NNc1cccc(Cl)n1)Nc1ccc(Cl)cc1", "lipid storage change, negative = inhibition": "inactive"}
{"molecule": "CC(C)(C)NC(=O)Cn1nnnc1-c1nonc1N", "lipid storage change, negative = inhibition": "inconclusive: -73.7%"}
{"molecule": "O=C(CSc1nnc(CNc2ccccc2)o1)N1CCc2ccccc21", "lipid storage change, negative = inhibition": "inconclusive: 10.9%"}
{"molecule": "CCc1ccnc(NS(=O)(=O)c2ccc3c(c2)CCO3)c1", "lipid storage change, negative = inhibition": "inconclusive: 1.78%"}
{"molecule": "Cc1ccc(C)c(NC(=S)NC(C)C(c2ccccc2)N2CCN(C)CC2)c1", "note": "(configuration not stated)", "lipid storage change, negative = inhibition": "inconclusive: -7.96%"}
{"molecule": "O=C(O)C1(c2ccccc2)CCN(S(=O)(=O)c2cccc(Cl)c2)CC1", "lipid storage change, negative = inhibition": "inconclusive: 61.8%"}
{"molecule": "Cc1cc(NC(=O)NC2CC(=O)N(c3ccc4c(c3)OCCO4)C2)no1", "note": "(configuration not stated)", "lipid storage change, negative = inhibition": "inconclusive: 6.77%"}
{"molecule": "N=c1c(C(=O)NCC2CCCO2)cc2c(=O)n3ccccc3nc2n1Cc1cccnc1", "note": "(configuration not stated)", "Potency": "inconclusive: 6.51 µM [activator, single point]"}
{"molecule": "CCN(CC)CCCNC(=O)c1nn(-c2cccc(OC)c2)c(=O)c2ccccc12", "Potency": "inconclusive: 11.6 µM [activator, partial curve]"}
{"molecule": "NCC(O)COc1ccc2c(c1)OCO2", "note": "(configuration not stated)", "lipid storage change, negative = inhibition": "inconclusive: -32.6%"}
{"molecule": "Cc1cc(F)ccc1N1CCC(N2CCN(C)C(CCO)C2)CC1", "note": "(configuration not stated)", "lipid storage change, negative = inhibition": "inconclusive: 48.1%"}
{"molecule": "Cc1nn(C)cc1CN(C)C(=O)c1nn2c(c1Cl)NC(c1cccs1)CC2C(F)(F)F", "note": "(configuration not stated)", "lipid storage change, negative = inhibition": "inconclusive: 23%"}
{"molecule": "CCc1ccc(C(=O)Nc2ccc3c(c2)n(C)c(=O)n3C)cc1", "lipid storage change, negative = inhibition": "inactive"}
{"molecule": "c1csc(-c2nc3c4ccccc4c4ccccc4c3[nH]2)c1", "Potency": "inconclusive: 16.4 µM [falling, single point]"}
{"molecule": "CC(=O)N1CCN(C(=O)c2oc3ccccc3c2C)CC1", "Potency": "inconclusive: 25.9 µM [activator, single point]"}
{"molecule": "CN(Cc1ccccc1)C(=O)COC(=O)c1ccc2c(c1)OCO2", "lipid storage change, negative = inhibition": "inconclusive: -21.9%"}
{"molecule": "Cc1cc(=O)oc2c(C)c(OCC(=O)NCCCN3CCCC3=O)ccc12", "lipid storage change, negative = inhibition": "inactive"}
{"molecule": "O=C(Cc1c(F)cccc1Cl)NC1=NCCS1", "lipid storage change, negative = inhibition": "inconclusive: 4.14%"}
{"molecule": "CC(OC(=O)CC1CC2CCC1C2)C(=O)Nc1ccc(C(N)=O)cc1", "note": "(configuration not stated)", "Potency": "inconclusive: 4.61 µM [activator, single point]"}
{"molecule": "Cc1nn(C)cc1S(=O)(=O)N1CCN(Cc2cccc(Cl)c2)CC1", "lipid storage change, negative = inhibition": "inconclusive: -19.7%"}
{"molecule": "O=c1cc(O)n(-c2ccccc2F)c(=S)[nH]1", "lipid storage change, negative = inhibition": "inconclusive: -9.75%"}
{"molecule": "O=C(Nc1nccs1)c1cccc(N2C(=O)C3C4C=CC(C4)C3C2=O)c1", "note": "(configuration not stated)", "Potency": "inconclusive: 14.6 µM [activator, single point]"}
{"molecule": "C=C(C)Cn1c(=O)c2c(nc3n2CCCN3CCc2ccccc2)n(C)c1=O", "Potency": "inconclusive: 23.1 µM [falling, single point]"}
{"molecule": "COc1ccccc1N1CCN(C(=O)C(CC(C)C)NC(=O)C2CCCCC2)CC1", "note": "(configuration not stated)", "Potency": "inconclusive: 0.58 µM [falling, single point]"}
{"molecule": "Cc1ccccc1NS(=O)(=O)c1ccc(C(=O)NCC(C)(C)N2CCOCC2)cc1", "lipid storage change, negative = inhibition": "inconclusive: 14.7%"}
{"molecule": "Brc1cccc2sc(N3CCN(c4ccccc4)CC3)nc12", "lipid storage change, negative = inhibition": "inconclusive: -4.28%"}
{"molecule": "Cc1cc(C)c(S(=O)(=O)N2CCCCC2)c(C)c1N(C)S(=O)(=O)c1ccccc1", "lipid storage change, negative = inhibition": "inconclusive: -25.5%"}
{"molecule": "O=C1c2ccccc2C(=O)N1CCc1nn[nH]n1", "lipid storage change, negative = inhibition": "inconclusive: -5.94%"}
{"molecule": "COCc1c(C(=O)Nc2nc(C)cs2)oc2ccccc12", "Potency": "inconclusive: 29.1 µM [activator, single point]"}
{"molecule": "Cc1cc(C(=O)OCCO)c(C#N)c(N)n1", "Potency": "inconclusive: 16.4 µM [falling, partial curve, poor fit]"}
{"molecule": "COC(=O)c1ccccc1NC1=C/C(=N\\S(=O)(=O)c2ccc(C(=O)O)cc2)c2ccccc2C1=O", "lipid storage change, negative = inhibition": "inconclusive: -63.8%"}
{"molecule": "COc1ccccc1N(C(=O)c1ccco1)C(C(=O)NC1CCCC1)c1cccs1", "note": "(configuration not stated)", "lipid storage change, negative = inhibition": "inconclusive: 18.6%"}
{"molecule": "Cc1cccc2c(CC(=O)Nc3ccccc3)noc12", "lipid storage change, negative = inhibition": "inconclusive: 21.7%"}
{"molecule": "COc1ccc(Cc2nnc(SCC(=O)N(C)c3ccccc3)o2)cc1", "lipid storage change, negative = inhibition": "inconclusive: 7.78%"}
{"molecule": "CCC1=C/C(=C/N(C)c2ccccc2)C(=O)S1", "lipid storage change, negative = inhibition": "inconclusive: 45.4%"}
{"molecule": "COc1ccc(S(=O)(=O)N(C)Cc2ccc3c(c2)OCCO3)cc1", "Potency": "inconclusive: 5.8 µM [activator, partial curve, poor fit]"}
{"molecule": "COC(=O)/C=C1/S/C(=N/NC(=O)c2ccc(OC)cc2)NC1=O", "lipid storage change, negative = inhibition": "inconclusive: 35.9%"}
{"molecule": "CC1CCCCN1CCNC(=O)c1ccc2c(=O)n(CCc3ccccc3)c(=O)[nH]c2c1", "note": "(configuration not stated)", "lipid storage change, negative = inhibition": "inconclusive: -165%"}
{"molecule": "CNC(=S)N(CCc1c(C)[nH]c2ccc(Cl)cc12)Cc1cccs1", "lipid storage change, negative = inhibition": "inconclusive: 10.1% [at 9.22 µM]"}
{"molecule": "Oc1[nH]c2ccccc2c1/C=N/N1CCCCC1", "lipid storage change, negative = inhibition": "inconclusive: -2.27%"}
{"molecule": "CC(C)(CNC(=O)c1ccc(S(=O)(=O)Nc2ccc(Cl)cc2)cc1)N1CCOCC1", "Potency": "inconclusive: 25.9 µM [falling, partial curve, poor fit]"}
{"molecule": "O=C(C1CCN(S(=O)(=O)c2cccnc2)CC1)N1CCN(C2CCCC2)CC1", "lipid storage change, negative = inhibition": "inconclusive: 12.7%"}
